Data: PubChem BioAssay AID192 (DTP/NCI, 2004)
Values joined by “and” are separate entries in the source; they are usually repeats but may differ in a detail not shown here. Equal entries are not always repeated. Inconclusive results and toxic doses are left out. The calls were made as follows: active = survival T/C of 150% or more; inactive = T/C below 125% in these data.

Tested on: BDF1 mice, B16 melanoma ip, median survival T/C
Test: NCI In Vivo Anticancer Drug Screen. Data for tumor model B16 Melanoma (intraperitoneal) in B6D2F1 (BDF1) mice
Settings: endpoint: median survival time, schedule: Q01DX009 (ip), higher = longer survival
Procedure: The antitumor activity of compounds was measured in mice bearing transplantable tumors. Survival or tumor size were measured and the results are expressed as the measurement made in the treated group (T) divided by the measurement made in the vehicle treated control group (C). The tumor model used in this assay is B16 Melanoma (intraperitoneal) in B6D2F1 (BDF1) mice

Measured: T/C

COc1cc2c(c(OC)c1OC)-c1ccc(OC)c(=O)cc1[C@@H](N)CC2
inactive: dose: 0.63 mg/kg/injection, vehicle: Klucel (hydroxypropylcellulose) (HPC) 102 % of control and 115 % of control | dose: 0.63 mg/kg/injection, vehicle: saline 111 % of control | dose: 1.25 mg/kg/injection, vehicle: Klucel (hydroxypropylcellulose) (HPC) 103 % of control | dose: 2.5 mg/kg/injection, vehicle: Klucel (hydroxypropylcellulose) (HPC) 106 % of control and 114 % of control | dose: 5.0 mg/kg/injection, vehicle: Klucel (hydroxypropylcellulose) (HPC) 121 % of control
